Laboratory results: patent US5648458A, “Peptides and compounds that bind to ELAM-1” (Affymax Technologies N.V., priority 1995, dated 1997)
Not every detail of the peptide structures is certain; ends, links or a residue may be inferred. Ends that are not written are not given here.

Target: T1, immobilized ELAM-1 (Homo sapiens, UniProt P16581)
T1 construct: truncated form comprising the complete extracellular domain (amino acids 1 through 554); made in house
T1 sequence (P16581 22-554): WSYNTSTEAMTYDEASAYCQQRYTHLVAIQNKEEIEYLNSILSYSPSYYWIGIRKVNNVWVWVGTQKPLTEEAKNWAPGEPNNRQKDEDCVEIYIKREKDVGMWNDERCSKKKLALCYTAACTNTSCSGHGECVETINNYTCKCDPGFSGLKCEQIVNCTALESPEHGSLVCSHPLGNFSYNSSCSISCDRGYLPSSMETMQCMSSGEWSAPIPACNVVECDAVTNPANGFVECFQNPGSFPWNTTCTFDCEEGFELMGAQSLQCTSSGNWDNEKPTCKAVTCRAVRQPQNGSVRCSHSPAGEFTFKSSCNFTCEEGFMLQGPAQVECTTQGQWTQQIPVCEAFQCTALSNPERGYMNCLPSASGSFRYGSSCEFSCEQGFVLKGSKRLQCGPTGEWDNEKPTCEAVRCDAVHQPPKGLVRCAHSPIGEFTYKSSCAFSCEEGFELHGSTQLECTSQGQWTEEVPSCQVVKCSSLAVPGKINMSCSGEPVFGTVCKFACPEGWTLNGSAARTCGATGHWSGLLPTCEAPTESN
Type: cell-based
Conditions: FIG. 5
Protocol: The assay requires HL60 cells labeled with tritiated thymidine. […] The cells are then placed in a T75 flask and incubated at 37° C. for 24 hours. The cells are then collected by centrifugation, washed twice with RPMI/HEPES/0.1% FCS, and resuspended in the same solution at a concentration of about one to two million cells per mL. About 100 μL of this cell preparation are used per well of a 96-well microtiter dish in the assay. The wells of the microtiter dish were first coated with the anti-receptor immobilizing antibody, an anti-HPAP-tail antibody, using about 2.5 μg of antibody per well. […] Then, the wells were washed three times with RPMI 1640 plus 0.1% FCS using a multichannel pipettor.

## DITWDQLWDLMK
  inhibition of cell adhesion: exhibits the desired inhibition of cell adhesion
